# The list shows a part of the results, in another mix than the full data. At the low end of the ranking the order means little.
# Sequences of proteins named here, by UniProt entry; tags and fusion partners are left off. A change or cut given only in a name is not applied to a line headed by its entry.
# UniProt Q00613: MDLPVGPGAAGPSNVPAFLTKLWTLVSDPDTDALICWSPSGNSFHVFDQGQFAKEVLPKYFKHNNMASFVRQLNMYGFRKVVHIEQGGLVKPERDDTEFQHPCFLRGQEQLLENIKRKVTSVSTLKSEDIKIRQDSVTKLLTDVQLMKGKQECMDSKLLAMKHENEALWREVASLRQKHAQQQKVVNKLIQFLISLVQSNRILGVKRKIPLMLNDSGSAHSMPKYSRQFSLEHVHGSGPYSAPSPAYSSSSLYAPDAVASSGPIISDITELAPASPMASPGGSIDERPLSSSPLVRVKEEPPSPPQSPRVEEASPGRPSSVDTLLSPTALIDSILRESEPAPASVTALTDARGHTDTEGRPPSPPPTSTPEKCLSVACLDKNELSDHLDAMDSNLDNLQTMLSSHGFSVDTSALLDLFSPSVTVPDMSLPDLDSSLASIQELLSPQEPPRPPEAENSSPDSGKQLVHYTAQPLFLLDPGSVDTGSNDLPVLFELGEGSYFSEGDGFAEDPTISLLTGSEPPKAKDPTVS
# Target: HSF1 (UniProt Q00613)
# Experiment: DAPPL (digital affinity profiling via proximity ligation, sequencing)
# Settings: 10 mM Tris-HCl pH 7.5, 50 mM NaCl, 1 mM DTT, 4% glycerol, room temperature, 30 min; GST-TFs on glutathione beads, 16-mer random dsDNA library, 0.1% …; high values mean tight binding; double strand, one strand shown; scale: fold enrichment (6-mer frequency, TF over GST control)
row,Sequence,binding signal
1,TGCGAC,0.975
2,AGTGGC,0.964
3,AATGAA,1.12
4,TTAGGA,1.28
5,GCTTGT,0.965
6,GTCCCA,0.875
7,CAACTT,1.22
8,GAAACA,1.22
9,CCTTAA,1.62
10,CACCCT,0.957
11,TTCGCC,1.14
12,TGTACG,1.01
13,AGTTCT,1.92
14,CTGTGG,0.776
15,GTCCAA,0.839
16,AACGCA,0.888
17,GTCTTG,0.825
18,TTTCGG,1.39
19,GAAAAT,1.49
20,TCATCG,1.12

row,Sequence,binding signal
1,CGCTAA,1.09
2,TTGAGC,1.03
3,CCTTCT,2.98
4,AAACCG,0.813
5,TGCAGA,0.947
6,AAGGCA,0.914
7,TTGCTT,1.1
8,CCTAGG,0.931
9,ATGCTG,1.02
10,CCGCCG,0.968
11,GACCAA,0.771
12,GATGTA,1.01
13,TCAAGG,1.04
14,ATACGG,0.906
15,GGTGTT,0.968
16,AGCGTC,0.877
17,AGGCAC,0.705
18,AGTGCC,0.726
19,GTCTAA,1.03
20,CGCCCA,0.892

# 3 entries picked at random from the list so far, as already listed:
row,Sequence,binding signal
11,GACCAA,0.771
14,ATACGG,0.906
4,AAACCG,0.813

# Source: publication PMC7862700
